Results published in the supplement of paper PMC3682954.
“And” between values parts separate entries of the source, which are not always exact repeats. Identical values can stand only once. Counter-ions that a name gives are not always drawn. ± gives the standard deviation of the averaged measurements. Some of the results follow. Single values are uncertain, as repeats are few or missing.

Tested on: RAW 264.7
Assay: cell viability (MTT) relative to vehicle control; higher = more viable cells
Details: stimulus: HMGB1 5 ug/ml, 18 h
[1] = compound concentration: 1 ug/ml

SMILES	cell viability [1]	cell viability (compound concentration: 3 uM)
Cc1cccc(-c2cc(=O)c3cc(C)ccc3o2)c1 [3',6-Dimethylflavone]	98%	–
Nc1ncnc2c1[nH]c(=S)n2C1OC(CO)C(O)C1O (stereo unspecified)	91.6%	–
O=c1[nH]c(=S)[nH]c(-c2ccccc2)c1Cc1c(O)ccc2ccccc12 [Cambinol]	–	97.1%
CCCN(CCC)S(=O)(=O)c1ccc(C(=O)O)cc1	–	98.5%
CCCN(CCC)S(=O)(=O)c1ccc(C(=O)O)cc1 [Probenecid]	–	91.1%
C[C@]12CC[C@@H]3c4ccc(O)cc4CC[C@H]3[C@@H]1CC[C@@H]2O [Estradiol]	–	104%
C[C@]12CC[C@@H]3c4ccc(O)cc4CC[C@H]3[C@@H]1CC[C@@H]2O [Estradiol-17 beta]	–	111%
C[C@]12CC[C@@H]3c4ccc(O)cc4CC[C@H]3[C@@H]1CC[C@@H]2O	–	108% and 98.8%
C[C@]12CC[C@@H]3c4ccc(O)cc4CC[C@H]3[C@@H]1CC[C@@H]2O [beta-Estradiol]	–	107%
CCSc1ncnc2nc[nH]c12 [6-ethylmercaptopurine]	96.7%	–
CN(C)CCOC(c1ccccc1)c1ccccc1 [Diphenhydramine]	–	117%
CN(C)CCOC(c1ccccc1)c1ccccc1	–	98.6 ± 0.78%
CN(C)CCOC(c1ccccc1)c1ccccc1 [Diphenhydramine hydrochloride]	–	102 ± 5.5%
COc1ccc2[nH]c([S+]([O-])Cc3ncc(C)c(OC)c3C)nc2n1 (stereo unspecified) [Tenatoprazole]	–	101 ± 10%
CN(C)CC/C=C1/c2ccccc2Sc2ccc(Cl)cc21	–	94.6%
CN(C)CC/C=C1/c2ccccc2Sc2ccc(Cl)cc21 [Chlorprothixene hydrochloride]	–	97.1 ± 5.1%
NC(Cc1cc(I)c(Oc2cc(I)c(O)c(I)c2)c(I)c1)C(=O)O (stereo unspecified) [Thyroxine (L)]	–	138%
OC(CN1CCC(Cc2ccc(F)cc2)CC1)c1ccc(Cl)cc1 (stereo unspecified) [Eliprodil]	–	95.8%
CC(=O)[C@H]1CC[C@H]2[C@@H]3CCC4=CC(=O)CC[C@]4(C)[C@H]3CC[C@]12C	–	104 ± 5.6%
CC(=O)[C@H]1CC[C@H]2[C@@H]3CCC4=CC(=O)CC[C@]4(C)[C@H]3CC[C@]12C [Progesterone]	105%	126 ± 16%
O=C1C[C@@H](c2ccc(O)c(O)c2)Oc2cc(O)cc(O)c21 [Eriodictyol;  (3',4',5,7-tetrahydroxyflavanone)]	91.8%	–
CN[C@H](CC(=O)O)C(=O)O [N-Methyl-D-aspartic acid]	–	104%
CN[C@@H]1[C@H](O)[C@H](NC)[C@H]2O[C@@]3(O)C(=O)C[C@@H](C)O[C@H]3O[C@@H]2[C@H]1O [Spectinomycin dihydrochloride pentahydrate]	92.3%	–
CN[C@@H]1[C@H](O)[C@H](NC)[C@H]2O[C@@]3(O)C(=O)C[C@@H](C)O[C@H]3O[C@@H]2[C@H]1O [Spectinomycin dihydrochloride]	–	98.6%
CN[C@@H]1[C@H](O)[C@H](NC)[C@H]2O[C@@]3(O)C(=O)C[C@@H](C)O[C@H]3O[C@@H]2[C@H]1O [Spectinomycin]	–	113%

SMILES	cell viability [1]	cell viability (compound concentration: 3 uM)
CN[C@@H]1[C@H](O)[C@H](NC)[C@H]2O[C@@]3(O)C(=O)C[C@@H](C)O[C@H]3O[C@@H]2[C@H]1O	–	101%
NS(=O)(=O)c1cc2c(cc1Cl)NC(C(Cl)Cl)NS2(=O)=O (stereo unspecified) [Trichloromethiazide]	–	105%
NS(=O)(=O)c1cc2c(cc1Cl)NC(C(Cl)Cl)NS2(=O)=O (stereo unspecified) [Trichlormethiazide]	–	111%
NS(=O)(=O)c1cc2c(cc1Cl)NC(C(Cl)Cl)NS2(=O)=O (stereo unspecified)	–	108%
CC(C)Nc1cccnc1N1CCN(C(=O)c2cc3cc(NS(C)(=O)=O)ccc3[nH]2)CC1 [Delavirdine]	–	105%
Cn1c(=O)c2[nH]c(-c3ccccc3)nc2n(C)c1=O [1,3-Dimethyl-8-phenylxanthine]	–	98.7%
CN(CCO)CC(O)Cn1cnc2c1c(=O)n(C)c(=O)n2C (stereo unspecified)	–	100%
C#Cc1cccc(Nc2ncnc3cc(OCCOC)c(OCCOC)cc23)c1 [Erlotinib]	–	109 ± 10%
Cc1onc(-c2ccccc2Cl)c1C(=O)N[C@@H]1C(=O)N2[C@@H]1SC(C)(C)[C@@H]2C(=O)O [Cloxacillin sodium salt]	–	93.9%
Cc1onc(-c2ccccc2Cl)c1C(=O)N[C@@H]1C(=O)N2[C@@H]1SC(C)(C)[C@@H]2C(=O)O	–	103%
CCN(CC)c1ncnc2c1ncn2C1OC(CO)C(O)C1O (stereo unspecified)	90.2%	–
CN[C@@H]1[C@@H](O[C@H]2O[C@H](CO)[C@@H](N)[C@H](O)[C@H]2O)OC2C[C@@H](N)[C@@H](O[C@H]3[C@H](O)[C@@H](O)[C@H](N)C[C@@H]3N)OC2[C@@H]1O (stereo partly specified) [Apramycin]	–	105 ± 16%
CN[C@@H]1[C@@H](O[C@H]2O[C@H](CO)[C@@H](N)[C@H](O)[C@H]2O)OC2C[C@@H](N)[C@@H](O[C@H]3[C@H](O)[C@@H](O)[C@H](N)C[C@@H]3N)OC2[C@@H]1O (stereo partly specified)	–	103%
C[C@@H]1NC(=O)[C@@H](N)CNC(=O)[C@H](C2CCNC(=N)N2)NC(=O)/C(=C/NC(N)=O)NC(=O)[C@H](CNC(=O)CC(N)CCCN)NC1=O.N=C1NCC[C@H]([C@@H]2NC(=O)/C(=C/NC(N)=O)NC(=O)[C@H](CNC(=O)C[C@@H](N)CCCN)NC(=O)[C@H](CO)NC(=O)[C@@H](N)CNC2=O)N1	–	105%
CC12CCC(CC1=O)C2(C)C [D-Camphor]	101%	–
CC12CCC(CC1=O)C2(C)C (stereo unspecified)	–	107%
OC[C@H]1NC[C@H](O)[C@@H](O)[C@@H]1O [1-Deoxynojirimycin hydrochloride]	–	96%
CCCCCCCCCCCCCCCCCCCCCCO	–	109%
NCCCC(=O)O [gamma-AMINOBUTYRIC ACID]	–	103%
Cc1c(-c2ccccc2)oc2c(C(=O)OCCN3CCCCC3)cccc2c1=O [Flavoxate hydrochloride]	–	101%
Cn1cnc2c1c(=O)[nH]c(=O)n2C [Theobromine]	100%	110.6 ± 0.72%
Cn1cnc2c1c(=O)[nH]c(=O)n2C	–	104%
CCOc1ccc2ccccc2c1C(=O)N[C@@H]1C(=O)N2[C@@H]1SC(C)(C)[C@@H]2C(=O)O [Nafcillin sodium salt monohydrate]	–	98.6%
CCOc1ccc2ccccc2c1C(=O)N[C@@H]1C(=O)N2[C@@H]1SC(C)(C)[C@@H]2C(=O)O	–	109%
